From patent US20190300610A1
No constants are given. Whether binding was seen depends on the method and setting. Some binding calls cover weakened binding; strength is not graded here.

Biological target: cynomolgus macaque VISTA polypeptide (ELISA coat) (cynomolgus macaque)
Test: ELISA, target protein coated at 1 µg/ml

B1: anti-VISTA clone 13D5-1 IgG1 (antibody, V domains shown)
VH: QVQLQQSGAELVRPGTSVKISCKASGYTFTNYWLGWVKQRPGHGLEWIGDIYPGGGYTNYNEKFKGKATLTADTSSSTAYMQLSSLTSEDSAVYFCVRSGYYYGSSWYFDVWGAGTTVTVSS
VL: DVLMTQTPLSLPVSLGDQASISCRSSQSIVHSSGNTYLEWYLQKPDQSPKLLIYKVSNRFSGVPDRFSGSGSGTDFTLKISRVEAEDLGVYYCFQGSHVPPTFGGGTKLEIKR
binding: binds
